No constants are given. Whether binding was seen depends on the method and setting. Binding can be weak; no strength is given.

By UniProt entry, the sequences of proteins in these tests, tags left out. Where a name states a change or a piece, a line headed by the entry shows the natural chain unless it says otherwise.
UniProt Q9VS01: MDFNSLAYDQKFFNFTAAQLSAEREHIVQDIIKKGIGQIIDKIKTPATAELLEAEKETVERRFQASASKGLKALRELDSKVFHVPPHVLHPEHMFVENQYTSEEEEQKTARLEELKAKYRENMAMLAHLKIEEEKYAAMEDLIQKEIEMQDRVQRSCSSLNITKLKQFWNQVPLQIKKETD
UniProt Q7JZC9: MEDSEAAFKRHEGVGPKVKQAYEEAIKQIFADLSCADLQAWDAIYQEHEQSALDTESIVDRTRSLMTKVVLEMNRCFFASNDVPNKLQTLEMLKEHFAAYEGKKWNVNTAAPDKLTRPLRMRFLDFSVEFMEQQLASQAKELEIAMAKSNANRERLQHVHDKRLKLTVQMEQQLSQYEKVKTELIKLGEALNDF
UniProt Q8IPW3: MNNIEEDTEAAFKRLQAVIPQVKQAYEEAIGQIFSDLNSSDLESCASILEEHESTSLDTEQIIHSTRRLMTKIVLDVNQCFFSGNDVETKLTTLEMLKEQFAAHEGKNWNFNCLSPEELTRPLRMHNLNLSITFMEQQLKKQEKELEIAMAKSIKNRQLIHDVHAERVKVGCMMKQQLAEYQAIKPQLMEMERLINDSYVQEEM
UniProt Q9VYX4: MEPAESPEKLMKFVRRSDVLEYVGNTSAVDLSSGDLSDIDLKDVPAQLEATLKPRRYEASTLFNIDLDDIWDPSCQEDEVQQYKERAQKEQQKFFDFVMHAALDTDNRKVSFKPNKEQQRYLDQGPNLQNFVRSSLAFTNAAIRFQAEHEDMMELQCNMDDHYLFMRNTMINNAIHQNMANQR

For assay [1], the target named is DmMis12 (Mis12 subunit of the Drosophila Mis12 complex) (Drosophila melanogaster) (UniProt Q9VS01). Kind of assay: cross-linking; about 0.8 mg/ml complex with 0.6 mM BS2G-H6/D6, 30 min at 37°C, digestion, LC-MS/MS, xQUEST (FDR < 0.05); both purified.
The target of assay [2] is DmNnf1a (Drosophila melanogaster) (UniProt Q7JZC9). The description is as above.
The target in assay [3] is DmNnf1b (Drosophila melanogaster) (UniProt Q8IPW3). The description is as above.
In assay [4] the target is DmMis12 (Mis12 subunit of the Drosophila Mis12 complex) (Drosophila melanogaster) (UniProt Q9VS01). Kind of assay: co-expression in E. coli (soluble complex or incorporation into a complex); subunits or deletion mutants co-expressed from pST44 in E. coli; soluble complex looked for in the bacterial cell lysate.

Take “DmKmn1 (Kmn1^Nsl1) (from UniProt Q9VYX4)”: the binding entry in assay [1], in assay [2] and in assay [3] was “binds” throughout.

Regarding DmNnf1a (from UniProt Q7JZC9), the binding entry in assay [1] and in assay [4] was “binds” throughout.

As for DmNnf1b (from UniProt Q8IPW3), the binding entry in assay [1] and in assay [4] was “binds” throughout.

Source of the values: article PMC4772808, “Insights from the reconstitution of the divergent outer kinetochore of Drosophila melanogaster” (Open Biology, 2016).
